Test results as given in the supplement of paper PMC5355238.
Counter-ions that a name gives are not always drawn. The list shows a part of the results. Most values lie at the level of the controls, where differences are scatter.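 Using flow cytometry, the assay measures the median γH2AX antibody signal in S-phase Reh cells (a human leukemia line). Each score is the number of standard deviations from the median difference of paired plate sets. Candidate hits scored above 2.5; compounds scoring below -2 lowered MK1775-induced damage.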

Each compound was assayed on Reh (assay: Z' of S-phase gammaH2AX difference (drug + MK1775 minus drug alone) (Z-score); higher = stronger synergistic S-phase DNA damage with MK1775). Settings: MK1775 concentration 400 nM; first compound 10 µM; 4 h.

Row | SMILES | Z' of S-phase gammaH2AX difference (Z-score)
1 | c1ccc2c(N3CCNCC3)cccc2c1 [1-(1-Naphthyl)piperazine hydrochloride] + C=CCn1c(=O)c2cnc(Nc3ccc(N4CCN(C)CC4)cc3)nc2n1-c1cccc(C(C)(C)O)n1 [MK1775] | inactive: 0.255
2 | CCCN(CCC)CCc1c[nH]c2ccc(C(N)=O)cc12 [N,N-Dipropyl-5-carboxamidotryptamine maleate] + C=CCn1c(=O)c2cnc(Nc3ccc(N4CCN(C)CC4)cc3)nc2n1-c1cccc(C(C)(C)O)n1 [MK1775] | inactive: -0.0899
3 | CC(C)NC(C)Cc1ccc(I)cc1 (stereo unspecified) [Iofetamine hydrochloride] + C=CCn1c(=O)c2cnc(Nc3ccc(N4CCN(C)CC4)cc3)nc2n1-c1cccc(C(C)(C)O)n1 [MK1775] | inactive: 0.605
4 | NCC#Cc1ccccc1 [3-Phenylpropargylamine hydrochloride] + C=CCn1c(=O)c2cnc(Nc3ccc(N4CCN(C)CC4)cc3)nc2n1-c1cccc(C(C)(C)O)n1 [MK1775] | inactive: 0.568
5 | NCC(O)c1ccc(O)cc1 (stereo unspecified) [(?)-Octopamine hydrochloride] + C=CCn1c(=O)c2cnc(Nc3ccc(N4CCN(C)CC4)cc3)nc2n1-c1cccc(C(C)(C)O)n1 [MK1775] | inactive: -0.267
6 | COC(=O)N1CCN(C(=O)Cc2ccc(Cl)c(Cl)c2)C(CN2CCCC2)C1 (stereo unspecified) + C=CCn1c(=O)c2cnc(Nc3ccc(N4CCN(C)CC4)cc3)nc2n1-c1cccc(C(C)(C)O)n1 [MK1775] | inactive: 1.05
7 | N=C(NCCC[C@H](N)C(=O)O)N[N+](=O)[O-] [NG-Nitro-L-arginine] + C=CCn1c(=O)c2cnc(Nc3ccc(N4CCN(C)CC4)cc3)nc2n1-c1cccc(C(C)(C)O)n1 [MK1775] | inactive: 0.296
8 | CCCN(CCC)C1Cc2cc(OC)c(OC)cc2C1 + C=CCn1c(=O)c2cnc(Nc3ccc(N4CCN(C)CC4)cc3)nc2n1-c1cccc(C(C)(C)O)n1 [MK1775] | inactive: 0.028
9 | O=c1c2ccccc2[se]n1-c1ccccc1 [Ebselen] + C=CCn1c(=O)c2cnc(Nc3ccc(N4CCN(C)CC4)cc3)nc2n1-c1cccc(C(C)(C)O)n1 [MK1775] | inactive: -0.0753
10 | CN1CCC23CCCCC2C1Cc1ccc(O)cc13 [Dextrorphan D-tartrate] + C=CCn1c(=O)c2cnc(Nc3ccc(N4CCN(C)CC4)cc3)nc2n1-c1cccc(C(C)(C)O)n1 [MK1775] | inactive: -1.08
11 | CC(=O)O[C@H]1C[C@@H]2CC[C@@H]3[C@H](CC[C@@]4(C)[C@H]3C[C@H]([N+]3(C)CCCCC3)[C@@H]4OC(C)=O)[C@@]2(C)C[C@@H]1[N+]1(C)CCCCC1 [Pancuronium bromide] + C=CCn1c(=O)c2cnc(Nc3ccc(N4CCN(C)CC4)cc3)nc2n1-c1cccc(C(C)(C)O)n1 [MK1775] | inactive: 1.94
12 | S=C=Nc1cccc(C2(N3CCCCC3)CCCCC2)c1 [Metaphit methanesulfonate] + C=CCn1c(=O)c2cnc(Nc3ccc(N4CCN(C)CC4)cc3)nc2n1-c1cccc(C(C)(C)O)n1 [MK1775] | inactive: -0.311
13 | NC(CCCCCP(=O)(O)O)C(=O)O (stereo unspecified) [(?)-2-Amino-7-phosphonoheptanoic acid] + C=CCn1c(=O)c2cnc(Nc3ccc(N4CCN(C)CC4)cc3)nc2n1-c1cccc(C(C)(C)O)n1 [MK1775] | inactive: -0.244
14 | CN1CCc2cccc(Cl)c2CC1 + C=CCn1c(=O)c2cnc(Nc3ccc(N4CCN(C)CC4)cc3)nc2n1-c1cccc(C(C)(C)O)n1 [MK1775] | inactive: 0.453
15 | COC(=O)[C@@H](N)CCCNC(=N)N[N+](=O)[O-] [NG-Nitro-L-arginine methyl ester hydrochloride] + C=CCn1c(=O)c2cnc(Nc3ccc(N4CCN(C)CC4)cc3)nc2n1-c1cccc(C(C)(C)O)n1 [MK1775] | inactive: 0.131
16 | C=CCN1CC[C@]23c4c5ccc(O)c4O[C@H]2C(=O)CC[C@@]3(O)[C@H]1C5 [Naloxone hydrochloride] + C=CCn1c(=O)c2cnc(Nc3ccc(N4CCN(C)CC4)cc3)nc2n1-c1cccc(C(C)(C)O)n1 [MK1775] | inactive: -0.466
17 | CP(=O)(O)C1=CCNCC1 + C=CCn1c(=O)c2cnc(Nc3ccc(N4CCN(C)CC4)cc3)nc2n1-c1cccc(C(C)(C)O)n1 [MK1775] | inactive: -0.382
18 | NC(=O)c1cc(N2CC2)c([N+](=O)[O-])cc1[N+](=O)[O-] + C=CCn1c(=O)c2cnc(Nc3ccc(N4CCN(C)CC4)cc3)nc2n1-c1cccc(C(C)(C)O)n1 [MK1775] | inactive: 0.388

Reprinted at random: 3 records from the list, in no set order.
Row | SMILES | Z' of S-phase gammaH2AX difference (Z-score)
16 | C=CCN1CC[C@]23c4c5ccc(O)c4O[C@H]2C(=O)CC[C@@]3(O)[C@H]1C5 [Naloxone hydrochloride] + C=CCn1c(=O)c2cnc(Nc3ccc(N4CCN(C)CC4)cc3)nc2n1-c1cccc(C(C)(C)O)n1 [MK1775] | inactive: -0.466
17 | CP(=O)(O)C1=CCNCC1 + C=CCn1c(=O)c2cnc(Nc3ccc(N4CCN(C)CC4)cc3)nc2n1-c1cccc(C(C)(C)O)n1 [MK1775] | inactive: -0.382
2 | CCCN(CCC)CCc1c[nH]c2ccc(C(N)=O)cc12 [N,N-Dipropyl-5-carboxamidotryptamine maleate] + C=CCn1c(=O)c2cnc(Nc3ccc(N4CCN(C)CC4)cc3)nc2n1-c1cccc(C(C)(C)O)n1 [MK1775] | inactive: -0.0899

(further entries)

Row | SMILES | Z' of S-phase gammaH2AX difference (Z-score)
19 | Cn1cc(C2=C(c3cn(C4CCN(Cc5ccccn5)CC4)c4ccccc34)C(=O)NC2=O)c2ccccc21 + C=CCn1c(=O)c2cnc(Nc3ccc(N4CCN(C)CC4)cc3)nc2n1-c1cccc(C(C)(C)O)n1 [MK1775] | inactive: -0.0111
20 | CN1CC[C@]2(CCN3CCc4c(oc5ccccc45)[C@@H]3C2)N(C)C1=O + C=CCn1c(=O)c2cnc(Nc3ccc(N4CCN(C)CC4)cc3)nc2n1-c1cccc(C(C)(C)O)n1 [MK1775] | inactive: 0.592
21 | N#CC(C#N)=Cc1ccc(O)c(O)c1 [Tyrphostin 23] + C=CCn1c(=O)c2cnc(Nc3ccc(N4CCN(C)CC4)cc3)nc2n1-c1cccc(C(C)(C)O)n1 [MK1775] | inactive: 0.636
22 | NC(=O)CI [Iodoacetamide] + C=CCn1c(=O)c2cnc(Nc3ccc(N4CCN(C)CC4)cc3)nc2n1-c1cccc(C(C)(C)O)n1 [MK1775] | inactive: 0.799
23 | CC[C@@H](C(=O)[C@@H](C)[C@@H](O)[C@H](C)[C@@H]1O[C@@H]([C@@H](CC)C(=O)O)CC[C@@H]1C)[C@H]1O[C@]2(C=C[C@@H](O)[C@]3(CC[C@@](C)([C@H]4CC[C@](O)(CC)[C@H](C)O4)O3)O2)[C@H](C)C[C@@H]1C [Salinomycin (Procoxacin)] + C=CCn1c(=O)c2cnc(Nc3ccc(N4CCN(C)CC4)cc3)nc2n1-c1cccc(C(C)(C)O)n1 [MK1775] | inactive: 0.233
24 | COc1ccc2[nH]c3c(c2c1)CCNC3 [6-Methoxy-1,2,3,4-tetrahydro-9H-pyrido[3,4b] indole] + C=CCn1c(=O)c2cnc(Nc3ccc(N4CCN(C)CC4)cc3)nc2n1-c1cccc(C(C)(C)O)n1 [MK1775] | inactive: -0.424
25 | CN1[C@@H]2C[C@@H](OC(=O)[C@H](CO)c3ccccc3)C[C@H]1[C@@H]1O[C@@H]12 [(-)-Scopolamine hydrobromide] + C=CCn1c(=O)c2cnc(Nc3ccc(N4CCN(C)CC4)cc3)nc2n1-c1cccc(C(C)(C)O)n1 [MK1775] | inactive: 0.39
26 | COc1cc(CC(C)N)c(OC)cc1I (stereo unspecified) [(?)-DOI hydrochloride] + C=CCn1c(=O)c2cnc(Nc3ccc(N4CCN(C)CC4)cc3)nc2n1-c1cccc(C(C)(C)O)n1 [MK1775] | inactive: 0.989
27 | O=C(O)[C@@H]1[C@H](C(=O)O)[C@H]2CC[C@@H]1O2 [Endothall] + C=CCn1c(=O)c2cnc(Nc3ccc(N4CCN(C)CC4)cc3)nc2n1-c1cccc(C(C)(C)O)n1 [MK1775] | inactive: 0.26
28 | NNCc1cccc(O)c1 [3-Hydroxybenzylhydrazine dihydrochloride] + C=CCn1c(=O)c2cnc(Nc3ccc(N4CCN(C)CC4)cc3)nc2n1-c1cccc(C(C)(C)O)n1 [MK1775] | inactive: -1.29
29 | CCCN(CCC)[C@@H]1CCc2c(F)ccc(O)c2C1 [R(+)-UH-301 hydrochloride] + C=CCn1c(=O)c2cnc(Nc3ccc(N4CCN(C)CC4)cc3)nc2n1-c1cccc(C(C)(C)O)n1 [MK1775] | inactive: 0.147
30 | N[C@@H]1C[C@H]1c1ccccc1 [Tranylcypromine hydrochloride] + C=CCn1c(=O)c2cnc(Nc3ccc(N4CCN(C)CC4)cc3)nc2n1-c1cccc(C(C)(C)O)n1 [MK1775] | inactive: -0.432
31 | CN1CCc2cc(O)cc3c2[C@H]1Cc1ccc(O)c(O)c1-3 [R(-)-2,10,11-Trihydroxyaporphine hybrobromide] + C=CCn1c(=O)c2cnc(Nc3ccc(N4CCN(C)CC4)cc3)nc2n1-c1cccc(C(C)(C)O)n1 [MK1775] | inactive: -0.308
32 | NC(CP(=O)(O)O)C(=O)O (stereo unspecified) [(?)-2-Amino-3-phosphonopropionic acid] + C=CCn1c(=O)c2cnc(Nc3ccc(N4CCN(C)CC4)cc3)nc2n1-c1cccc(C(C)(C)O)n1 [MK1775] | inactive: -0.474
33 | O=C1CC[C@@]2(O)[C@H]3Cc4ccc(O)c5c4[C@@]2(CCN3CC2CC2)[C@H]1O5 [Naltrexone hydrochloride] + C=CCn1c(=O)c2cnc(Nc3ccc(N4CCN(C)CC4)cc3)nc2n1-c1cccc(C(C)(C)O)n1 [MK1775] | inactive: -0.0146
34 | NCC(CC(=O)O)c1ccc(Cl)cc1 (stereo unspecified) [(?)-Baclofen] + C=CCn1c(=O)c2cnc(Nc3ccc(N4CCN(C)CC4)cc3)nc2n1-c1cccc(C(C)(C)O)n1 [MK1775] | inactive: 0.454
35 | CN1CC[C@@]2(C)c3cc(O)ccc3N(C)C12 (single isomer, unassigned; (-)) [(-)-Eseroline fumarate] + C=CCn1c(=O)c2cnc(Nc3ccc(N4CCN(C)CC4)cc3)nc2n1-c1cccc(C(C)(C)O)n1 [MK1775] | inactive: -0.401
36 | CC(C)[C@]12O[C@H]1[C@@H]1O[C@]13[C@]1(O[C@H]1C[C@H]1C4=C(CC[C@@]13C)C(=O)OC4)[C@@H]2O [Triptolide] + C=CCn1c(=O)c2cnc(Nc3ccc(N4CCN(C)CC4)cc3)nc2n1-c1cccc(C(C)(C)O)n1 [MK1775] | inactive: -0.83
